# Laboratory results taken from PubChem BioAssay (NCATS).
# Inconclusive means that the source gave no clear call. Such entries were picked first, then a sample of the others. Potencies of inconclusive entries are doubtful fits and often do not repeat. Calls of active or inactive are those of the source. The call rests on the fitted dose curve; in most records, active means well fitted activation curve with a large enough effect; inconclusive means small, poorly fitted or top-dose-only effect, or another doubt; inactive means no such curve, though single readings can be large or run the other way.
# Molecular target: Rap guanine nucleotide exchange factor 3 (Homo sapiens) (UniProt O95398)
# Assay: Counterscreen qHTS for agonist of cAMP-regulated guanine nucleotide exchange factor 3 (EPAC1) (AID 1645889); further: nearly all actives have a fitted effect of over 40% in size; on activation: % of control where 0% means no effect
# Conditions: EPAC1 Rap1B-BODIPY-GDP exchange, fluorescence; activation: at 154 µM (top of the series) unless noted
# Method in brief: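 Measured: fluorescence of BODIPY-GDP bound to Rap1B, which falls as exchange proceeds. Conditions include 50 uM competing GDP, 5 and 30 min reads, and a later cAMP challenge for antagonist detection.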
# Potency means the concentration at half of the fitted maximal effect.
Structure (SMILES),Potency,activation
COc1cc(Nc2cc(C)nc3ncnn23)cc(OC)c1,"inconclusive: 0.02 µM [activator, full curve, poor fit]",
CCOC(=O)C1CCN(C(=O)c2cccc(S(=O)(=O)N(CC)c3ccccc3)c2)CC1,,inactive: 11.2%
O=C(NCCS(=O)(=O)N1CCN(c2cccc(Cl)c2)CC1)c1ccc2c(c1)OCO2,,inactive: -4.76%
CCOc1nc(-c2ccccc2Cl)nc2ccccc12,,inconclusive: 52.8% [activator]
CC1Oc2ccc(C#N)cc2N(Cc2ccccc2OC(F)(F)F)C1=O (centres undefined),"inconclusive: 0.0631 µM [activator, full curve]",
Cc1cc(=O)n2c(sc3ccccc32)c1C#N,,inactive: 22.2% [at 30.8 µM]
CC(=O)CCc1oc2ccc(C)cc2c1-c1ccccc1,,inconclusive: 16.3% [activator]
O=C(O)C(c1ccccc1)N1C(=O)/C(=C\c2ccc(-c3ccccc3Cl)o2)SC1=S (centres undefined),,inactive: 14.1%
CCOc1ccc(S(=O)(=O)N2CCCCC2)c2ccccc12,"inconclusive: 15.8 µM [activator, partial curve, poor fit]",
COC(=O)c1ccc2nc(-c3ccccc3)c(Cc3ccc(C)cc3)n2c1,,inconclusive: 35% [activator]
O=C(O)c1ccc(/C=N/N2CCN(Cc3cccc4ccccc34)CC2)cc1,,inactive: 4.41% [at 30.8 µM]
Cn1cc(C(CO)Cc2ccccc2)c2ccccc21 (centres undefined),,inactive: 2.04% [at 30.8 µM]
COc1ccc(NC(=O)CSc2ccccc2)cc1S(=O)(=O)N1CCCCC1,,inconclusive: 26.4% [activator]
CN(Cc1ccccc1)c1ncnc2onc(-c3ccc(F)cc3)c12,"inconclusive: 31.6 µM [activator, partial curve, poor fit]",
CC(C(=O)Nc1ccccc1-c1ccccc1)N1CCN(C(=O)c2ccccc2)CC1 (centres undefined),,inactive: 29% [at 30.8 µM]
CCNC(C(=O)c1c[nH]c2c(CC)cccc12)c1ccccc1 (centres undefined),,inactive: 23.9%
Cc1cccc(CC2C(=O)Nc3ccccc32)c1 (centres undefined),,inconclusive: 27.2% [activator]
Cc1cccc(Cc2cnc(N3C(=N)SC(c4ccccc4)C3=O)s2)c1 (centres undefined),,inconclusive: 42% [activator]
O=C(OC1CCOC1=O)c1ccc(-c2nc3ccccc3s2)s1 (centres undefined),,inactive: 16.1%
Cc1noc(C)c1CSc1ncnc2sc(C)c(C)c12,,inactive: 3.68%
Cc1cc2oc(=O)cc(CN3CCCC3)c2cc1Cl,,inactive: 28.8% [at 30.8 µM]
CC(=O)C1=C(c2ccc(C)cc2)N(C(C)=O)n2c(nnc2C2CCCCC2)S1,,inactive: 1.98%
CC(=O)N1CCc2nc3sc(C(=O)Nc4ccc(Cl)cc4F)c(N)c3c(C(F)(F)F)c2C1,,inconclusive: 86.1% [activator]
CCOC(=O)N1CCN(C(=O)CSc2nnc(Cc3ccccc3)o2)CC1,,inconclusive: 41.6% [activator]
CCOCCCn1c(SCC(=O)Nc2ccc(OC)cc2OC)nc2ccccc2c1=O,,inactive: 16.1%
COc1cc2cc(CNc3ccc(C)cc3)c(=O)n(CC(=O)Nc3ccc(F)cc3F)c2cc1OC,,inconclusive: 55.4% [activator]
O=C(c1ccco1)N(Cc1ccc([N+](=O)[O-])cc1)c1ccc(Br)cc1,"inconclusive: 7.08 µM [activator, partial curve, poor fit]",
COc1ccc(CNc2cccnc2)c(OC)c1OC,,inactive: 15.5% [at 30.8 µM]
O=[N+]([O-])c1cc(Cl)ccc1NCCc1ccccn1,,inactive: -0.252% [at 30.8 µM]

# Already shown: five of the compounds above.
Structure (SMILES),Potency,activation
CC(C(=O)Nc1ccccc1-c1ccccc1)N1CCN(C(=O)c2ccccc2)CC1 (centres undefined),,inactive: 29% [at 30.8 µM]
CCNC(C(=O)c1c[nH]c2c(CC)cccc12)c1ccccc1 (centres undefined),,inactive: 23.9%
Cc1cccc(CC2C(=O)Nc3ccccc32)c1 (centres undefined),,inconclusive: 27.2% [activator]
Cc1cccc(Cc2cnc(N3C(=N)SC(c4ccccc4)C3=O)s2)c1 (centres undefined),,inconclusive: 42% [activator]
O=C(OC1CCOC1=O)c1ccc(-c2nc3ccccc3s2)s1 (centres undefined),,inactive: 16.1%
